Measurements: article PMC2759284
Results are given in words; binding and its absence hold for the method and conditions named. Some binding calls cover weakened binding; strength is not graded here. Sequences can lack the tags named with a protein.

Sequences of proteins named here, by UniProt entry; tags and fusion partners are left off. A change or cut given only in a name is not applied to a line headed by its entry.
UniProt Q9Y4B6, whole entry: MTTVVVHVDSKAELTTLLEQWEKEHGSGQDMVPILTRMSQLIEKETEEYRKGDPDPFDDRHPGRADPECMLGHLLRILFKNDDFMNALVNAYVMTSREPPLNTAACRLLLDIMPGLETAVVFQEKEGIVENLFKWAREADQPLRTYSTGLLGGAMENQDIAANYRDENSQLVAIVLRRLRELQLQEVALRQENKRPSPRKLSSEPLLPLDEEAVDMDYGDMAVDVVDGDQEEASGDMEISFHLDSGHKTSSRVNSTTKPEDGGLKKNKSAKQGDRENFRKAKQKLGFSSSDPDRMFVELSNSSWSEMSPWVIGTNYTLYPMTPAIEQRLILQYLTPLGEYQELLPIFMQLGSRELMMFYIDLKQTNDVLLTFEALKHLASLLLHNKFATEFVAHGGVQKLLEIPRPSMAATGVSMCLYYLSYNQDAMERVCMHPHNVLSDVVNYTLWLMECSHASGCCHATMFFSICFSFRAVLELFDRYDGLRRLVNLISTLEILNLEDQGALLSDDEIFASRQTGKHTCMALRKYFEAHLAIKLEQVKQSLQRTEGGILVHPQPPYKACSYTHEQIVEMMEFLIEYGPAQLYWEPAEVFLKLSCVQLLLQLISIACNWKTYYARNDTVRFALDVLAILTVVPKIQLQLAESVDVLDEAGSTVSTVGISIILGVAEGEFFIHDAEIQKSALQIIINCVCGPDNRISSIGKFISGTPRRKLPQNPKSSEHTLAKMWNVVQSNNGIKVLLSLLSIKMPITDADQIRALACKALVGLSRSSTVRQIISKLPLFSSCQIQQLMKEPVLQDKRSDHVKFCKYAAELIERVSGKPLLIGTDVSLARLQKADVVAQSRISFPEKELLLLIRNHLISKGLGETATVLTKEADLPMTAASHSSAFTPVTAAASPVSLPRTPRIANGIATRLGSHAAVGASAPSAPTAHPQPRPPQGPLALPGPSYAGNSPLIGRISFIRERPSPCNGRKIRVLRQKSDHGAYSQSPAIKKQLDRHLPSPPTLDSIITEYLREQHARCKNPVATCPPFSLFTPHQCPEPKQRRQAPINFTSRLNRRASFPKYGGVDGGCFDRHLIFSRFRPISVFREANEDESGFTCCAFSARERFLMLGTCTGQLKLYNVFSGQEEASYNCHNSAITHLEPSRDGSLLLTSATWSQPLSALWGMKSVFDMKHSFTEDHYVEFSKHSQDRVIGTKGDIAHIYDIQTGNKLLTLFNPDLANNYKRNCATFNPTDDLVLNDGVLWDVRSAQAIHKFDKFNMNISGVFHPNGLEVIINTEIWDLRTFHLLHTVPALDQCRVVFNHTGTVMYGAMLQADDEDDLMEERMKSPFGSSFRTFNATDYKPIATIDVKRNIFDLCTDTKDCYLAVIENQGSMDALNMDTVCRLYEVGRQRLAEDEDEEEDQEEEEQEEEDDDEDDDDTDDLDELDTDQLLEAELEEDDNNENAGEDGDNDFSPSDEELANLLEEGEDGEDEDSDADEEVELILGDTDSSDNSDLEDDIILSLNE

B1: nucleoporin hCG1, fused to the Gal4 activation domain (protein, UniProt O15504 1-423)
chain: MAICQFFLQGRCRFGDRCWNEHPGARGAGGGRQQPQQQPSGNNRRGWNTTSQRYSNVIQPSSFSKSTPWGGSRDQEKPYFSSFDSGASTNRKEGFGLSENPFASLSPDEQKDEKKLLEGIVKDMEVWESSGQWMFSVYSPVKKKPNISGFTDISPEELRLEYHNFLTSNNLQSYLNSVQRLINQWRNRVNELKSLNISTKVALLSDVKDGVNQAAPAFGFGSSQAATFMSPGFPVNNSSSDNAQNFSFKTNSGFAAASSGSPAGFGSSPAFGAAASTSSGISTSAPAFGFGKPEVTSAASFSFKSPAASSFGSPGFSGLPASLATGPVRAPVAPAFGGGSSVAGFGSPGSHSHTAFSKPSSDTFGNSSISTSLSASSSIIATDNVLFTPRDKLTVEELEQFQSKKFTLGKIPLKPPPLELLNV

How the values were obtained:
[1] = target: VprLai-R77Q, fused to LexA (HIV-1 (Lai)) (UniProt P05928); test: two-hybrid; L40 yeast reporter strain (HIS3 LexA-inducible); Vpr fused to LexA, hCG1, UNG2 or DCAF1 fused to the Gal4 activation domain; growth on medium without histidine
[2] = target: HIV-1 Vpr of the prototypic HIV-1Lai, fused to LexA (HIV-1 (Lai)) (UniProt P05928); test: as above

Row | Molecule | binding [1] | binding [2]
1 | DCAF1 subunit of the Cul4a/DDB1 E3 ubiquitin ligase, fused to the Gal4 activation domain (from UniProt Q9Y4B6 1-1507) | binds | –
2 | UNG2, nuclear form of the DNA repair enzyme, fused to the Gal4 activation domain (from UniProt P13051-1 1-313) | binds | binds
3 | B1 | binds | binds
